The values that follow come from patent publication US12486302B2 (CDRD VENTURES INC., priority 2016, dated 2025).

The first data set in a line: general procedure: Fmoc solid-phase peptide synthesis; Rink Amide MBHA resin; HBTU/NMM; DIC/OxymaPure for cysteines. The note with it: oxidative folding step, HPLC, TFA salt.
For “H-Cpa-cyclo[D-Cys-Tyr-D-Phe(4-n-pentylamino)-Lys-Thr-Cys]-D-Tyr-NH2”, the “final HPLC purity” value came out at 95.1%.

Still in this data set, the particulars now being: whole synthesis, overall, scale of the general procedure 0.1 mmol, bis acetate salt.
For the substance “H-Cpa-cyclo[D-Cys-Tyr-D-Phe(4-carbamoyl)-Lys(N^ε-Me)-Thr-Cys]-D-Tyr-NH2”, the isolated yield is 40%.
The same measure, in the same setting: the result for “H-Cpa-cyclo[D-Cys-Tyr-D-Phe(4-phenylureido)-Lys-Thr-Cys]-D-Tyr-NH2” reads 30%; that for “H-Cpa-cyclo[D-Cys-Tyr-D-Cit-Lys-Thr-Cys]-D-Tyr-NH2”, 32%; that for “H-Cpa-cyclo[D-Cys-Tyr-D-Phe(4-carbamoyl)-Lys-Thr-Cys]-D-Tyr-NH2”, 33%.

Still in this data set, the particulars now being: whole synthesis, scale 0.1 mmol, TFA salt; some converted to bis acetate salt (General Method H).
In the case of “H-Cpa-D-Cys-Tyr-D-Phe(4-n-pentylamino)-Lys-Thr-Cys-D-Tyr-NH2”, the crude mass worked out at 50 mg.

Still in this data set, the particulars now being: whole synthesis, scale of the general procedure 0.1 mmol, 2-TFA salt.
As for “H-Cpa-cyclo[D-Cys-Tyr-D-Phe(4-carbamoyl)-Lys(N^ε-diMe)-Thr-Cys]-D-Tyr-NH2”, the isolated yield is 9%.
On to “H—(N-Me)Cpa-cyclo[D-Cys-Tyr-D-Phe(4-carbamoyl)-Lys-Thr-Cys]-D-Tyr-NH2”, for which the isolated yield was 10%.
“H-β-Ala-Cpa-cyclo[D-Cys-Tyr-D-Phe(4-carbamoyl)-Lys (Nε-Me)-Thr-Cys]-D-Tyr-NH2”: the isolated yield came out at 6%.
With “H-Cpa-cyclo[D-Cys-Tyr-D-Phe(4-phenylureido)-Lys(N^ε-Me)-Thr-Cys]-D-Tyr-NH2”, the isolated yield is on record as 10%.
Still for that read-out and setting: the result for “H-Cpa-cyclo[D-Cys-Cpa-D-Phe(4-carbamoyl)-Lys(N^ε-Me)-Thr-Cys]-D-Cpa-NH2” reads 23%; that for “H-Cpa-cyclo[D-Cys-Tyr-D-Phe(4-carbamoyl)-Lys(N^ε-Me)-Thr-Cys]-D-Cpa-NH2”, 29%; that for “H-Cpa-cyclo[D-Cys-Cpa-D-Phe(4-carbamoyl)-Lys(N^ε-Me)-Thr-Cys]-D-Tyr-NH2”, 33%.

Still in this data set, the particulars now being: whole synthesis, scale of the general procedure 0.1 mmol, TFA salt.
Regarding “Ac-Gly-Cpa-cyclo[D-Cys-Tyr-D-Phe(4-carbamoyl)-Lys(N^ε-Me)-Thr-Cys]-D-Tyr-NH2”, the isolated yield amounted to 4%.
On the same count and under the same terms, the result for “H2N(CO)(CH2)2(CO)-Cpa-cyclo[D-Cys-Tyr-D-Phe(4-carbamoyl)-Lys(N^ε-Me)-Thr-Cys]-D-Tyr-NH2” reads 5%; that for “t-BuCH2(CO)-Cpa-cyclo[D-Cys-Tyr-D-Phe(4-carbamoyl)-Lys(N^ε-Me)-Thr-Cys]-D-Tyr-NH2”, 10%.
Take “CH3O2C(CH2)2(CO)-Cpa-cyclo[D-Cys-Tyr-D-Phe(4-carbamoyl)-Lys(N^ε-Me)-Thr-Cys]-D-Tyr-NH2”: the isolated yield came to 9%.
Still for that read-out and setting: the result for “(Furan-2-carboxy)-Cpa-cyclo[D-Cys-Tyr-D-Phe(4-carbamoyl)-Lys(N^ε-Me)-Thr-Cys]-D-Tyr-NH2” reads 8%; that for “2-Pyridyl(CO)-Cpa-cyclo[D-Cys-Tyr-D-Phe(4-carbamoyl)-Lys(N^ε-Me)-Thr-Cys]-D-Tyr-NH2”, 8%; that for “CH3(CH2)4(CO)-Cpa-cyclo[D-Cys-Tyr-D-Phe(4-carbamoyl)-Lys(N^ε-Me)-Thr-Cys]-D-Tyr-NH2”, 8%.
Same read-out and setting: the result for “PhSO2CH2(CO)-Cpa-cyclo[D-Cys-Tyr-D-Phe(4-carbamoyl)-Lys(N^ε-Me)-Thr-Cys]-D-Tyr-NH2” reads 4%; that for “Ph(CO)NHCH2(CO)-Cpa-cyclo[D-Cys-Tyr-D-Phe(4-carbamoyl)-Lys(N^ε-Me)-Thr-Cys]-D-Tyr-NH2”, 3%.
